Data: article PMC11163939
Results are given in words; binding and its absence hold for the method and conditions named. In cells and extracts the contact can be indirect. Some results given as binding are weak or reduced against the parent protein; the word gives no strength. For some assays here: Where a sequence is shown, tags or fusion partners need not be part of it.

Sequences of proteins named here, by UniProt entry; tags and fusion partners are left off. Residues count along the entry.
UniProt Q9UBS4, residues 23-358: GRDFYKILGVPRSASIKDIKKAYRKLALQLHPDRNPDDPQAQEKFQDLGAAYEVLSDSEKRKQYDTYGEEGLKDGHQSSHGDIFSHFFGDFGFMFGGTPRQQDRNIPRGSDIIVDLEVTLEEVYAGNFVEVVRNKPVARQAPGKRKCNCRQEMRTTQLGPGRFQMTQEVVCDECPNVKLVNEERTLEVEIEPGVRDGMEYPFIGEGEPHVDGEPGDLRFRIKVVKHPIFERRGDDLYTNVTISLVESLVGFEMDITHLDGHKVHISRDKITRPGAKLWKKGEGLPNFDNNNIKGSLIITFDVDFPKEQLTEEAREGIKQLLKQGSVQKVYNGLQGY
UniProt P11021, residues 19-654: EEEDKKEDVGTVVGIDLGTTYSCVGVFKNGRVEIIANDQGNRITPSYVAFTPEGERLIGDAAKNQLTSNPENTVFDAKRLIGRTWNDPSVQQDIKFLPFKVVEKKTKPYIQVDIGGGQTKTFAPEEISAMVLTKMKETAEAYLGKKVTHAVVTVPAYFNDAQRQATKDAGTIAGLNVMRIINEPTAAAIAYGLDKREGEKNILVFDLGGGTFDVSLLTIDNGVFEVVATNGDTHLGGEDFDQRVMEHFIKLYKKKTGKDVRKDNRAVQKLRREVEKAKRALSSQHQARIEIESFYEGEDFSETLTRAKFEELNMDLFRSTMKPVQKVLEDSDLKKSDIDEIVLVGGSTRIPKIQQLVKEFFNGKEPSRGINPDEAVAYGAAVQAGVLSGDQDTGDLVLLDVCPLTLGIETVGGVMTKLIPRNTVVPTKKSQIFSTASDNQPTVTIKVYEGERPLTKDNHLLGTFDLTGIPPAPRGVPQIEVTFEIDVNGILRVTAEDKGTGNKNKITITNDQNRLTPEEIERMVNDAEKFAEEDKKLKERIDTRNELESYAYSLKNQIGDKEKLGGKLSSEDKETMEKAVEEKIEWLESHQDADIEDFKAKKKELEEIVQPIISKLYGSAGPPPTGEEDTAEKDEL

T1: C‐terminal FLAG‐tagged human EDEM1 (ER degradation‐enhancing α‐mannosidase‐like protein 1) (human) (UniProt Q92611)
T1 sequence: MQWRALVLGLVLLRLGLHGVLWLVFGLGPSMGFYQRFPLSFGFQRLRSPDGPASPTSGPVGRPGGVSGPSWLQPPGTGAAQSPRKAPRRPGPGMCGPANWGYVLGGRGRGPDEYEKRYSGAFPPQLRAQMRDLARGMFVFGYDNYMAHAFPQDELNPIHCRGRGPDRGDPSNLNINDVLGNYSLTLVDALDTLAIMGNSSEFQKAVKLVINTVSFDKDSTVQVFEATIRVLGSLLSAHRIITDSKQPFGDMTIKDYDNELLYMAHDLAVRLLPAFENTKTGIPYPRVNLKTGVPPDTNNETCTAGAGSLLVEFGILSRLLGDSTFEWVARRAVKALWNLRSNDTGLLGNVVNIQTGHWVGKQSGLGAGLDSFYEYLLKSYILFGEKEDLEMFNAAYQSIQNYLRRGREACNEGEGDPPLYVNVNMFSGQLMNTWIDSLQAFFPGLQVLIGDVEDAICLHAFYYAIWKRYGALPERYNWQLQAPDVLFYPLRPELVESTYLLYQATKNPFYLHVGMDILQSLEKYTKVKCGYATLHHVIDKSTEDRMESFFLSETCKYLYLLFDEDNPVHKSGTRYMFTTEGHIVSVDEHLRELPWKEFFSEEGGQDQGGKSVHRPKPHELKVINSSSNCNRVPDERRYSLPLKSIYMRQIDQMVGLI

B1: HA‐tagged OS9 (variant 2) at the C‐terminus (protein, UniProt Q13438-2 26-612)
chain: GGVGSLNLEELSEMRYGIEILPLPVMGGQSQSSDVVIVSSKYKQRYECRLPAGAIHFQREREEETPAYQGPGIPELLSPMRDAPCLLKTKDWWTYEFCYGRHIQQYHMEDSEIKGEVLYLGYYQSAFDWDDETAKASKQHRLKRYHSQTYGNGSKCDLNGRPREAEVRFLCDEGAGISGDYIDRVDEPLSCSYVLTIRTPRLCPHPLLRPPPSAAPQAILCHPSLQPEEYMAYVQRQADSKQYGDKIIEELQDLGPQVWSETKSGVAPQKMAGASPTKDDSKDSDFWKMLNEPEDQAPGGEEVPAEEQDPSPEAADSASGAPNDFQNNVQVKVIRSPADLIRFIEELKGGTKKGKPNIGQEQPVDDAAEVPQREPEKERGDPERQREMEEEEDEDEDEDEDEDERQLLGEFEKELEGILLPSDRDRLRSEVKAGMERELENIIQETEKELDPDGLKKESERDRAMLALTSTLNKLIKRLEEKQSPELVKKHKKKRVVPKKPPPSPQPTGKIEIKIVRPWAEGTEEGARWLTDEDTRNLKEIFFNILVPGAEEAQKERQRQKELESNYRRVWGSPGGEGTGDLDEFDF

Legend:
[1] = target: myc‐tagged ERdj3 at the C‐terminus (wild type) (UniProt Q9UBS4); assay: co-IP; Figure S8a, lanes 11 and 12, ERdj3 WT against H53Q with BiP; the method is taken from the lanes of a blot, the legend and the antibody used to precipitate were not shown
[2] = target: T1, C‐terminal FLAG‐tagged human EDEM1 (ER degradation‐enhancing α‐mannosidase‐like protein 1) (human); assay: co-IP; 293 EBNA cells transfected with EDEM1-FLAG and OS9-HA (Figure S7); lysis in 1% TX100, 20 mM HEPES pH 7.5, 150 mM NaCl; methods describe immunoisolation of FLAG-tagged proteins on anti-FLAG M2 agarose at 4°C for 1 h, washes with 50 mM Tris-HCl pH 7.5, 0.1% CHAPS, 150 mM NaCl, elution with 500 μM FLAG peptide, western blotting

| Molecule | binding [1] | binding [2] |
| --- | --- | --- |
| BiP (from UniProt P11021 19-654) | binds |  |
| B1 |  | binds |
